{
  "source": "ChEMBL document CHEMBL4513147",
  "about": "“CO-ADD screening of Armstrong State University (GA, USA) compounds”",
  "note": "The list shows a part of the results. Measured potencies and affinities stand elsewhere.",
  "data": [
    {"test_system": "Pseudomonas aeruginosa", "conditions": "Concentration 32 ug.mL-1; ASSAY_TEST Inhibition of Bacterial Growth; detection method Absorption (OD600); MEDIA CAMHB; plate type 384well; NBS; CORNING #3640; time 18 hr", "units": {"Inhibition": "%"}, "values": [
      {"molecule": "COc1cc2c(cc1OC)C(=O)C(=Cc1ccoc1)CC2", "Inhibition": 1.1},
      {"molecule": "COc1ccc2c(c1)CCC(=Cc1ccoc1)C2=O", "Inhibition": 10.57},
      {"molecule": "COc1ccc(/C=C/C(=O)c2ccc(OCc3ccc(Br)cc3)cc2)cc1OC", "Inhibition": -12.17},
      {"molecule": "COc1ccc2c(c1)CCC(=Cc1cccnc1)C2=O", "Inhibition": 8.07},
      {"molecule": "COc1ccc2c(c1)C(=O)C(=Cc1ccccn1)CC2", "Inhibition": 4.56},
      {"molecule": "COc1ccc2c(c1)C(=O)C(=Cc1cccnc1Cl)CC2.Cl", "Inhibition": 6.28},
      {"molecule": "COc1ccc2c(c1)C(=O)C(=Cc1ccco1)CC2", "Inhibition": 6.4},
      {"molecule": "COc1ccc2c(c1)CCC(=Cc1ccncc1)C2=O", "Inhibition": 6.98},
      {"molecule": "COc1ccc2c(c1)C(=O)C(=Cc1cncc(Br)c1)CC2", "Inhibition": 1.93},
      {"molecule": "COc1cccc2c1CCC(=Cc1ccoc1)C2=O", "Inhibition": 1.34},
      {"molecule": "COc1ccc2c(c1)C(=O)C(=Cc1cccnc1)CC2", "Inhibition": 7.48},
      {"molecule": "COc1ccc2c(c1)C(=O)C(=Cc1cnccc1OC)CC2", "Inhibition": 7.85},
      {"molecule": "COc1ccc2c(c1)CCC(=Cc1ccc(OC)nc1)C2=O", "Inhibition": 12.11},
      {"molecule": "CC(C)(C)OC(=O)N1CC(=Cc2ccco2)C(=O)/C(=C/c2ccco2)C1", "Inhibition": 3.63},
      {"molecule": "Cc1ccc(C=C2CN(C(=O)OC(C)(C)C)C/C(=C\\c3ccc(C)cc3C)C2=O)c(C)c1", "Inhibition": -3.88},
      {"molecule": "COc1cc2c(cc1OC)C(=O)C(=Cc1ccco1)CC2", "Inhibition": 2.91},
      {"molecule": "COc1ccc2c(c1)C(=O)C(=Cc1ccoc1)CC2", "Inhibition": 6.67},
      {"molecule": "COc1cccc2c1CCC(=Cc1ccco1)C2=O", "Inhibition": 6.23},
      {"molecule": "COc1ccc2c(c1)C(=O)C(=Cc1cccnc1Br)CC2", "Inhibition": 2.74},
      {"molecule": "COc1cccc2c1CCC(=Cc1cccc(C=C3CCc4c(OC)cccc4C3=O)c1)C2=O", "Inhibition": -14.78},
      {"molecule": "CC(C)(C)OC(=O)N1CC(=Cc2ccoc2)C(=O)/C(=C/c2ccoc2)C1", "Inhibition": -1.4},
      {"molecule": "COc1ccc2c(c1)CCC(=Cc1ccco1)C2=O", "Inhibition": 8.37},
      {"molecule": "COc1ccc2c(c1)CCC(=Cc1ccccn1)C2=O", "Inhibition": 5.97},
      {"molecule": "COc1ccc2c(c1)CCC(=Cc1cncc(Br)c1)C2=O", "Inhibition": 1.12},
      {"molecule": "COc1ccc2c(c1)C(=O)C(=Cc1cccc(C=C3CCc4ccc(OC)cc4C3=O)c1)CC2", "Inhibition": 4.57},
      {"molecule": "COc1ccc2c(c1)C(O)C(=Cc1cccnc1Cl)CC2", "note": "(stereo unspecified)", "Inhibition": 1.37},
      {"molecule": "COc1ccc2c(c1)CCC(=Cc1cnccc1OC)C2=O", "Inhibition": 0.2},
      {"molecule": "COc1ccc2c(c1)CCC(=Cc1cccnc1Cl)C2=O", "Inhibition": 3.2},
      {"molecule": "COc1ccc2c(c1)C(=O)C(=Cc1cccnc1OC)CC2", "Inhibition": 5.93},
      {"molecule": "COc1ccc2c(c1)C(=O)C(=Cc1cccnc1Cl)CC2", "Inhibition": 1.79},
      {"molecule": "COc1ccc2c(c1)CCC(=Cc1cccnc1Br)C2=O", "Inhibition": 3.58}
    ]}
  ]
}
